Assay results taken from the supplement of paper PMC11732987, “Enantioselective OTUD7B fragment discovery through chemoproteomics screening and high-throughput optimisation” (Communications Chemistry, 2025).
The list shows a part of the results. The data scatter; read single values as rough.

Legend:
[1] = compound: ClCC(=O)N[C@@H]1CCCc2ccccc12; experiment: log2 mean competition ratio of IA-DTB cysteine labelling (DMSO/compound) (log2 ratio); higher = stronger cysteine engagement by compound; conditions: treatment time: 4 h, cell line lysate: HEK293T
Description: (§1)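 IA-DTB competitive cysteine chemoproteomics in HEK293T RIPA lysate. Lysates were treated with compound 29 or 30 at 50 or 200 µM for 4 h, then IA-DTB (500 µM, 1 h), trypsin-digested, NeutrAvidin-enriched and analysed by diaPASEF. Competition ratio = intensity DMSO / intensity compound (n=4 treated, n=64 DMSO); binding: mean log2 CR ≥ 1 and p ≤ 0.05 plus QC filters. Target is the cysteine site.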

[2] = compound: ClCC(=O)N[C@H]1CCCc2ccccc12; experiment: as above; conditions: treatment time: 4 h, cell line lysate: HEK293T
Description: as §1

| Target | log2 mean competition ratio ([1]; 50 µM) | log2 mean competition ratio ([1]; 200 µM) | log2 mean competition ratio ([2]; 50 µM) | log2 mean competition ratio ([2]; 200 µM) |
| --- | --- | --- | --- | --- |
| DICER1 C214 (UniProt Q9UPY3) | -0.0417 | -0.246 |  |  |
| DHX29 C659 (UniProt Q7Z478) | 0.515 | 0.0505 | 0.492 | 0.0525 |
| DNAJC12 C129 (UniProt Q9UKB3) | -0.0403 | -0.0688 | -0.06 | -0.027 |
| DOK1 C70 (UniProt Q99704) | 0.19 | -0.238 |  |  |
| DPYSL4 C90 | 0.0327 | 0.394 | 0.461 | 0.28 |
| DHX15 C774 (UniProt O43143) | 0.0797 | 0.0947 |  |  |
| DHCR24 C499 (UniProt Q15392) | 0.277 | 0.309 | -0.0331 | 0.166 |
| DNPEP C337 | 0.252 | 0.0578 |  |  |
| DNA2 C569 (UniProt P51530) | -0.223 | -0.25 | -0.107 | 0.0193 |
| DICER1 C1641 (UniProt Q9UPY3) | -0.0121 | -0.122 |  | 0.00974 |
| DOLPP1 C86 (UniProt Q86YN1) | 0.476 | -0.283 | 0.306 | -0.38 |
| DHX15 C190 (UniProt O43143) | -0.018 | -0.192 | -0.193 | 0.137 |
| DOCK8 C2091 (UniProt Q8NF50) | 0.0444 | 0.26 | -0.244 | -0.00117 |
| DIAPH1 C964 | 0.259 | 0.085 | -0.115 | -0.287 |
| DHX40 C470 (UniProt Q8IX18) | 0.0299 | 0.0567 | -0.0764 | 0.0542 |
| DOCK6 C595 (UniProt Q96HP0) | -0.143 | -0.081 | 0.225 | 0.149 |
| DHX40 C242 (UniProt Q8IX18) | 0.0491 | 0.0742 | -0.318 | 0.112 |
| DNAJC17 C38 (UniProt Q9NVM6) | 0.165 | -0.307 | 0.135 | -0.223 |

Single records (already shown). Order of values: log2 mean competition ratio ([1]; 50 µM) | log2 mean competition ratio ([1]; 200 µM) | log2 mean competition ratio ([2]; 50 µM) | log2 mean competition ratio ([2]; 200 µM)
DOLPP1 C86 (UniProt Q86YN1) as listed: 0.476 | -0.283 | 0.306 | -0.38
DHX29 C659 (UniProt Q7Z478) as listed: 0.515 | 0.0505 | 0.492 | 0.0525
